In the supplement of paper PMC3334620:
In all, about 33,000 sequences were measured (“E-score (-0.5 to 0.5)”: median about -0.0034, highest 2% from about 0.25 on). This is one part of the list.

Molecular target: T1, Yap3 (UniProt P38749)
T1 sequence: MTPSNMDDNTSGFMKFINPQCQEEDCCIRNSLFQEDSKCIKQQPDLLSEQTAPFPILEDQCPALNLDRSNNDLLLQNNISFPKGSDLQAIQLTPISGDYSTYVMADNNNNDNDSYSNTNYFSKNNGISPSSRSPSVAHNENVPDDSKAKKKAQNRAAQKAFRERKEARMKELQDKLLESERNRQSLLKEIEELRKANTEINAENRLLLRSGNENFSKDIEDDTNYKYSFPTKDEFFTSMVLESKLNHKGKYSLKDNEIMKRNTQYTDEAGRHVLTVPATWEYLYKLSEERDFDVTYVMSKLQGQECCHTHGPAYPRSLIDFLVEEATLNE
Assay: PBM E-score (8-mer binding enrichment) (E-score (-0.5 to 0.5)); higher = stronger / more preferred TF binding
Conditions: protein concentration: 100 nM; construct: GST-full length
Summary of the method: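 The E-score, a modified Wilcoxon-Mann-Whitney statistic, was computed by the Universal PBM Analysis Suite for every ungapped eight-base word pooled with its reverse complement. Scans behind it were normalised with masliner after bound GST-tagged yeast transcription factors were detected with fluorescent anti-GST. The proteins, at about 100-200 nM, had been applied to universal all-10-mer Agilent arrays made double-stranded by primer extension.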

Sequence	PBM E-score
GCACAAAA	0.122
ATTGCGCG	0.173
CATAAGGC	0.09
GGAAGCAA	-0.11
GACACGGC	0.0159
ATCATTTA	0.188
AAAGATAT	0.196
ACCTAATC	0.245
GAAACATC	-0.0874
GAATGCCC	-0.0828
ATGTGGAG	0.0173
CACGCCCG	-0.137
CCAGATTC	-0.373
TCGCAGCA	0.0578
GTGATACA	0.142
TCGCATAA	0.253
CATCCGTC	0.132
CGACAATA	0.239
AGATTGCC	-0.0847
CTCCCAAG	-0.167
GTCCTTCA	-0.0904
ATGCCTGA	-0.0455
ATTAGCCC	0.0454
CTCACGTA	0.039
ACATACAA	0.106

Sequence	PBM E-score
GACCTGCA	-0.105
AAGTTTAA	-0.0802
AAAGGGTT	-0.0977
CGAACGTC	-0.113
AATACAGT	0.173
AGGTGCTG	-0.146
AAAATTAG	0.227
AACGAGAC	-0.00753
CATACAAA	0.193
CACTCGGG	-0.0909
CCCCAGCG	-0.238
TACCCCAA	0.0397
AAACCCTG	-0.00746
CTCTAATA	0.0435
ACCTCGTG	0.0214
AACAGCCA	0.0566
AAGGGTTC	-0.0876
ACTTATTG	0.0515
ATTATGTG	0.291
ACGACCGG	-0.211
AAACTGAA	0.11
GGGCCTAA	-0.25
CGAGTTCA	0.0033
AAGGATAC	-0.0343
CCACGATA	0.0477

Sequence	PBM E-score
CCTTTACA	-0.0856
ACTTCGCC	0.114
ATGTCGTC	-0.102
ATAGACGG	0.15
AGCGAGAG	-0.0362
CTGACCAG	-0.195
AGTTACGC	-0.115
GCCACGAC	-0.041
TAACTGTA	0.105
AGTAGAGG	-0.103
CCATGGAA	0.0481
GTGTGGAA	0.0389
CTCTGTTA	0.0122
ATTGGAAC	0.157
AATGACCT	-0.103
GCACTGTA	0.122
CTACATCA	0.129
AGGTGATG	-0.0661
GAAAGGAA	0.0165
TAGTATCA	0.219
AGTCCGAC	-0.157
AGAACGGA	-0.0208
ATGGAGAA	0.0653
AGCGTTAC	-0.1
GGAAATAC	0.149

Sequence	PBM E-score
CTACAGTA	0.105
CTGTCAGA	-0.107
CCTCGACA	-0.0638
GACAATAC	0.237
TAAGATGA	0.146
ATCCGTAG	-0.164
CTGCAATC	0.0425
CCTGCGCC	-0.233
CCCAGGTC	-0.265
ATTCTTAC	0.185
ATTAGAGG	-0.164
AGTCGTTC	-0.0612
AGATGGAT	-0.0578
CACCTCGA	0.208
ACTCAAAA	0.0867
CATCTCTC	0.0553
AAAACTCG	0.149
TCACTGAA	0.0615
ACGCAACG	0.0692
CCCCAGAC	-0.236
CACCGTAA	0.0946
ATATAGAC	0.123
CACACGAG	-0.0983
ATTTTGTA	0.218
AGATTATA	0.159

Sequence	PBM E-score
AAACACGA	0.186
ATTCTCCG	0.0807
CAGCTTCA	-0.117
TCAGCGAA	-0.0747
ACTCGAAT	-0.00978
CGTAGCGA	-0.0428
CTAACGCA	0.0376
GAGTCCAC	-0.189
ATTGCGGA	0.0449
CCGCAAGG	-0.00931
AGTCTGAC	-0.126
GATGGCAC	-0.162
AAAACTGA	0.0883
ATCCTTCG	-0.0718
CACGATTA	0.166
CGCGACCA	0.0731
GGTGGGTA	-0.0755
CTAATCGC	0.0898
CGAGAAAA	-0.0207
CACAAAAG	0.0916
CAGGGCTC	-0.322
CAGCCACC	-0.241
GTGAGGTA	0.0278
CTCAGACC	-0.0277
AGTAATAT	0.295

Sequence	PBM E-score
ATTTAATA	0.302
AAATGGAA	0.0788
GCGAGGCA	0.129
TATGAACA	0.154
AAGACGCT	-0.134
TTATCAAA	0.283
AAGAAGCA	0.119
GCGCTACC	-0.207
CCTCTGCA	-0.156
ACTAGCCG	-0.105
AGGCGGTG	-0.124
CAGCCCTC	-0.251
TCATGCCA	0.107
CTATGGCA	-0.0295
TCGTAAAA	0.186
CGCTGAGC	-0.0626
CCTACGAC	-0.00598
ACACGGCC	-0.118
CCAACCAA	-0.105
CAAAAGTA	0.124
AAGTCTCG	-0.256
CCGGAGGA	-0.32
ATGGGCTA	0.0365
ACTAACTA	0.0625
ACCGTAAG	0.134

Laid out differently: results already given.
Sequence | PBM E-score
AAGAAGCA | 0.119
ACACGGCC | -0.118
ACTAACTA | 0.0625

More entries follow.

Sequence	PBM E-score
CCGCGGGA	0.0728
GACCGAAA	0.0716
AGTTGGGC	0.0554
GGTTTTTA	0.0665
ATGGCACA	0.0343
CCGTTGAG	-0.143
CTCTCCAA	-0.0585
TCTTTTAA	0.0931
GCTTATGA	0.00919
GGCCATGA	-0.0375
GTTGTACA	0.148
GCCGTTGA	-0.014
AACATTGG	-0.0847
GCTCGAGA	-0.133
ACGACGCT	-0.137
ACAATAAA	0.106
CCCGTTAA	-0.148
ATAGCTAC	0.0338
CGACGTCC	-0.0908
CAGGGTTA	-0.103
ACTGTCAC	-0.0116
AGACATCA	-0.00878

A few values from the list.
Entry of GCTTATGA under PBM E-score: 0.00919
Entry of ACTGTCAC under PBM E-score: -0.0116
Entry of ACAATAAA under PBM E-score: 0.106
